Our source for the growth estimate values is the supplement of paper PMC5949888.

Most values lie at the floor of the assay. Slopes are relative: functional sequences can read slightly below zero.

For the series, the system named is Saccharomyces cerevisiae PS128 hsf1 delta, HSF1(1-493) fusion. The series can be described thus: growth estimate (transactivation domain function in HSF1 fusion, heat-shock survival) (a.u. (slope of normalised read count over time)); higher = stronger growth at 37°C, i.e. more transactivation activity. The conditions noted are these: library: random library.
For ASSPRVI, the growth estimate is below -0.25.
Turning to SPKLGFMMNVDLRVSHEPRV, the growth estimate is below -0.25.
Turning to VGDRIICGSKRGSQGVPGQP, the growth estimate was below -0.25.
Regarding SSNS, the growth estimate was below -0.25.
To VVLVRRIG belongs below -0.25; to SLGGSLTTGDNAHEQVGSSA, below -0.25.
HYTSANRRVNK: the growth estimate was below -0.25.
AIMGPGGLRPSSQAGTDGEP: the growth estimate is below -0.25.
Consider IHHEMVLGLVGRNRIACQRR, for which the growth estimate is below -0.25.
Consider YGDRDVDSRN, for which the growth estimate is below -0.25.
In the case of LMGVRYGIGRGA, the growth estimate was below -0.25.
Regarding YVAGWQKPH, the growth estimate is below -0.25.
As for RITHSSAIWSCQAPGPWTSR, the growth estimate was below -0.25.
To DPDPIIRPKMSGGRAYCRQV belongs -0.245; to KSTVMGRLSW, below -0.25.
LGALGSRVHYGLLSGVKIWI: the growth estimate is below -0.25.
To EKGL belongs below -0.25.
For TWVLR, the growth estimate is below -0.25.
Consider HLVTSETSIWAKSCLLDREG, for which the growth estimate was below -0.25.
In the case of VLLTA, the growth estimate is below -0.25.
To SYGRGPTSETGRLMQSLMS belongs below -0.25; to RTEASTCTATPM, below -0.25; to QFWAGSRT, below -0.25.
Consider ASLDGFSVGCHSGHFALSIA, for which the growth estimate is -0.246.
As for IKMV, the growth estimate was below -0.25.
Turning to CSGWARLVASDSLQAPRPGY, the growth estimate is below -0.25.
For the substance SGALARCAEVAKRALREVPH, the growth estimate is below -0.25.
As for NRVSDASFTFAGSLQRRGTT, the figure is below -0.25; as for SVESLKSPSQYRVLDSVGTL, below -0.25; as for LGKGKESGSNYTGVQHNRVG, below -0.25.
In the case of AGPRG, the growth estimate was below -0.25.
In the case of NESVDGGSVVIAGAPSSPNF, the growth estimate is below -0.25.
Regarding YARMV, the growth estimate is below -0.25.
Take VLVG: the growth estimate is below -0.25.
Take AITQSDSRRPKPFRSRPVYR: the growth estimate is below -0.25.
In the case of LLSKIGVNNPVGKGKRIYPF, the growth estimate was -0.245.
As for LGSSLLEAASTTPSNRY, the figure is below -0.25.
For AWIV, the growth estimate was below -0.25.
Turning to PNGSLVQSHFVWTLSLLIIV, the growth estimate is below -0.25.
Take YSGVVKGELTEFFGCTGLTF: the growth estimate was 0.0861.
As to STKRLLRPFTFPSLTSYCPT, the growth estimate was below -0.25.
To ILGLAVKVRKICGLPGRKL belongs below -0.25.
On to GQTCET, for which the growth estimate was below -0.25.
On to EVLCTCLTGLFAREGRPLRD, for which the growth estimate is below -0.25.
TLQVKFYDPIASRQGDVRGM: the growth estimate is below -0.25.
As for DTAS, the figure is below -0.25.
On to YRLVLISPS, for which the growth estimate was below -0.25.
For the substance RWK, the growth estimate was -0.167.
FALTHKDQNGMIHVQCIP: the growth estimate was below -0.25.
For the substance ILVAGILP, the growth estimate is below -0.25.
Turning to NDVKSYCN, the growth estimate is below -0.25.
For LRDFTWLANICQFCYRVHYG, the growth estimate was below -0.25.
On to RRPRGLGQEYFSSGVGSLSA, for which the growth estimate is below -0.25.
Consider LSDVASEIPHVGRGLH, for which the growth estimate was below -0.25.
To FIRRSGNG belongs below -0.25; to GSAGAFTRKPRS, below -0.25.
LLPSAGTKPLAHSTPRRCQC: the growth estimate is below -0.25.
In the case of LNLVK, the growth estimate is below -0.25.
For YVFAKYETRNI, the growth estimate is below -0.25.
Consider SRSLANLN, for which the growth estimate is below -0.25.
PNRWSVVTVLNRPHGQAVRP: the growth estimate is below -0.25.
Turning to PKRLIYPR, the growth estimate is below -0.25.
In the case of KPSEVEPFVRFTLEPLWVGQ, the growth estimate is -0.228.
As for SRLILAKASQPRPTSSRGVY, the figure is below -0.25; as for RHGVCVLGQLVPEFGQILKQ, below -0.25.
To VADVDPPARKLGILSGLD belongs below -0.25.
To ILEFEIRG belongs below -0.25.
KYTYAFTLSVRGLVD: the growth estimate was below -0.25.
Regarding VVHRGILRTNG, the growth estimate is below -0.25.
To MELDEARYARMDGSRSVHRV belongs below -0.25.
On to RYHWRGGQGI, for which the growth estimate was 0.226.
Consider RSDLRAQ, for which the growth estimate was below -0.25.
For the substance RDGKAVQYLKYR, the growth estimate was -0.246.
Regarding STAARIKVPSRAQCLR, the growth estimate is below -0.25.
In the case of PWPVPPSKRDDVRGPRGPRD, the growth estimate is below -0.25.
Consider LRRQIAKCSTISERWGNQRS, for which the growth estimate was below -0.25.
As to RVLMSFLTLFRPAKT, the growth estimate was below -0.25.
In the case of SPARLKCFCGRRDAGVATTL, the growth estimate was below -0.25.
As to TMLDIFTSQAERCLGRSTAR, the growth estimate was below -0.25.
Regarding TLCLRGCML, the growth estimate is below -0.25.
In the case of VTIARFLRISRAMFTPVWLP, the growth estimate is below -0.25.
To YSRKVFSGSVPG belongs below -0.25; to SLHPCISDGLPGETGVWAPE, below -0.25; to YGSDRTICALWLIGFKRVRL, below -0.25.
As for FIHIIKNSGDGD, the growth estimate is below -0.25.
For QVLELCSWS, the growth estimate is below -0.25.
Take LRVRAIATPHHRVEKRTIDH: the growth estimate is below -0.25.
Consider GTPDMGRMCVWIHHLAECYR, for which the growth estimate was below -0.25.
Take FGKRPAVPYIALAPDPSAVT: the growth estimate was below -0.25.
Turning to CYSTSFATRTVSVQWTSWVV, the growth estimate is below -0.25.
On to AGCVGGKPAESTRFGCNSAQ, for which the growth estimate was below -0.25.
As for SSAIL, the growth estimate is below -0.25.
VGCLSVFKFSAKGRHHLILG: the growth estimate was below -0.25.
With THSTRVSRHLRCN, the growth estimate is below -0.25.
Regarding RAVPAGQEHRRIRA, the growth estimate is below -0.25.
To QGELNILGVGGSLPVRLYAD belongs below -0.25; to HRQRRR, below -0.25.
Regarding FRSLKSIGEISRLASELSVP, the growth estimate is below -0.25.
As to PHGSMSVYCI, the growth estimate was below -0.25.
Consider MFENSREVLT, for which the growth estimate was below -0.25.
As for DVGQFSSLLGCRGGISVSSG, the figure is below -0.25; as for VRG, below -0.25; as for GYIL, below -0.25.
Consider RPELHIGRF, for which the growth estimate is below -0.25.
To GSRFVGVRPLFRQRGSGGYA belongs below -0.25; to RSSREVSHKL, below -0.25.
With SKTGSRSS, the growth estimate was below -0.25.
As for CRPVVTSRHETMRC, the figure is below -0.25; as for VRVPRYFRVDYTTL, 0.0603.
To AVGEKELAEATRQRNSVARV belongs below -0.25.
In the case of HEDSLKLRSGFPAD, the growth estimate was below -0.25.
Consider LAWLKSRAVRGFGLTETPLQ, for which the growth estimate is below -0.25.
For the substance RALLDSLTTEPCPSPITQA, the growth estimate was below -0.25.
With RSSHGRVPVSLCLLEGY, the growth estimate is below -0.25.
For the substance MPANYPGGLYSSLQSVQCVA, the growth estimate was below -0.25.
